Laboratory results taken from article PMC7819943, “Rice protein-binding microarrays: a tool to detect cis-acting elements near promoter regions in rice”.
This is one part of the list.

Amino acid sequences for entries named in this document (tags omitted).
UniProt Q0JBA9, entry or part of it: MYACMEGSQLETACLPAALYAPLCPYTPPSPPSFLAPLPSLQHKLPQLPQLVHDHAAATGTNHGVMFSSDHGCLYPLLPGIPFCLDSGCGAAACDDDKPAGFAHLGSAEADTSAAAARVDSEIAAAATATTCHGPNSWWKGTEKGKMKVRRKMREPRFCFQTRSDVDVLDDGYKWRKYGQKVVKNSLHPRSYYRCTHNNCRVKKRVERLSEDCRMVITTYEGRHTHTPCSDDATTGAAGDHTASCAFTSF

target: OsWRKY34 (Oryza sativa, UniProt Q0JBA9 1-250); experiment: protein-binding microarray (RPBM); PBS, 2% BSA, 51.3 ng/ul salmon testes DNA, 50 uM zinc acetate, 200 nM TF, 25 C, 1 h; high values mean tight binding; settings: protein: recombinant; tags: N-terminal polyhistidine and DsRed monomer fusion (pET32a); label: CyDye5-dUTP incorporated in the synthesized complementary strand; 3' TTTTT single-stranded linker to array surface; dsDNA, one strand shown
Outline: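 Transcription factors were made in E. coli BL21-CodonPlus as N-terminal fusions to a polyhistidine tag and DsRed, then purified on Ni–NTA. After primer extension with Cy5-dUTP and blocking with 2% BSA, a custom Agilent array was exposed for 1 h at 25 °C to 200 nM protein in PBS, 2% BSA, salmon testes DNA and 50 µM zinc acetate. Washed arrays were scanned on an Axon 4000B, and the binding signal is per-feature fluorescence intensity in arbitrary units.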

| Sequence | binding signal |
| --- | --- |
| AGCACATTTGCACTCCATTCAACATACTTTGCGAGTCCCTCGGAGTCACCTAGTGCAG | 8270 fluorescence intensity (a.u.) |
| AAGACGAATGGTCAAACATGTTTAAAAAAGTCAACGACGGCGGAGTCACCTAGTGCAG | 10600 fluorescence intensity (a.u.) |
| GGTCGAGATGCCCAGCTGGTAGGCCTATTTTCTTGACAAACGGAGTCACCTAGTGCAG | 8960 fluorescence intensity (a.u.) |
| CACCCGACGCCTCCTCCTGCCCGCCCGGATCTACCTCGGCCGGAGTCACCTAGTGCAG | 8390 fluorescence intensity (a.u.) |
| CTTCCCACTCTCACGTCTCCTCTCTTCCCCTCCGCGAAGCCGGAGTCACCTAGTGCAG | 9170 fluorescence intensity (a.u.) |
| TTCATGTGTTCTTGGTTGAATGTTTTGTTATGTGTGTTATCGGAGTCACCTAGTGCAG | 11400 fluorescence intensity (a.u.) |
| CATATATCCACTAATTAATTAATAAACGTTGACCAGTATGCGGAGTCACCTAGTGCAG | 8230 fluorescence intensity (a.u.) |
| AATCTCTCCTCCTCCCATCCCGCCGCGCCCGCGAGAGATCCGGAGTCACCTAGTGCAG | 8190 fluorescence intensity (a.u.) |
| ATGTTATAATGCGTCAATTGATGGCAACTGTTTCCATTGTCGGAGTCACCTAGTGCAG | 9350 fluorescence intensity (a.u.) |
| TTCCTGTTTCGCTTAAGTCTGCAATATGTTGTTGATGTTTCGGAGTCACCTAGTGCAG | 11300 fluorescence intensity (a.u.) |
| TAAAGTCAAACTGTTTTTTTAAGTTTGACCAAGCTTTTGACGGAGTCACCTAGTGCAG | 10400 fluorescence intensity (a.u.) |
| TTTCCGTTCCTTTCTTTCCTTCTCGCGTTTGCGTGGTGGGCGGAGTCACCTAGTGCAG | 10500 fluorescence intensity (a.u.) |
| TCGACTCACGACGCGCGTGCGCATATGGCCACCGTCTCCGCGGAGTCACCTAGTGCAG | 9140 fluorescence intensity (a.u.) |
| TGGAATTGATTATGATGCTGTTTCCTTCATGGGAGCTCTACGGAGTCACCTAGTGCAG | 10400 fluorescence intensity (a.u.) |
| TACCACATTGTTGTCATGGCACGGCTCCTACTCCAATCAACGGAGTCACCTAGTGCAG | 9120 fluorescence intensity (a.u.) |
| GAGTAAGTTTATTTTGCCTCCATTTATTGAATCATCTTCCCGGAGTCACCTAGTGCAG | 8130 fluorescence intensity (a.u.) |
| CCGCCGCCCCACGCCCGATGCCACCCGCCGCCGCCGGCTGCGGAGTCACCTAGTGCAG | 8100 fluorescence intensity (a.u.) |
| CTCTCGCGTGCATCCCTTTTTGTCCTTACACAAGTGTCCGCGGAGTCACCTAGTGCAG | 9240 fluorescence intensity (a.u.) |
| ATCCTGTGTTTTCCCTATTTCTCCGTCTTTTAAATCTTGTCGGAGTCACCTAGTGCAG | 8420 fluorescence intensity (a.u.) |
| GCTGCTAGTACACTCAATATCTATGTATTTTTTCTTCTTACGGAGTCACCTAGTGCAG | 8820 fluorescence intensity (a.u.) |
| TGAGTGATCCGTTATATCTGTTTTTTTTTTTCTGTTAAAGCGGAGTCACCTAGTGCAG | 8310 fluorescence intensity (a.u.) |
| GAGCATGATCTATTTTTGAAAAACCATGTATTCCTGTCTTCGGAGTCACCTAGTGCAG | 8710 fluorescence intensity (a.u.) |
| TTCCAACACTGCATGAACAGTGTCATTGGTTTTTCTTCTTCGGAGTCACCTAGTGCAG | 8500 fluorescence intensity (a.u.) |

An excerpt of these results, with tabs.
Sequence	binding signal
TAAAGTCAAACTGTTTTTTTAAGTTTGACCAAGCTTTTGACGGAGTCACCTAGTGCAG	10400 fluorescence intensity (a.u.)
TTTCCGTTCCTTTCTTTCCTTCTCGCGTTTGCGTGGTGGGCGGAGTCACCTAGTGCAG	10500 fluorescence intensity (a.u.)
